Assay results reported in PubChem BioAssay AID1671190 (National Center for Advancing Translational Sciences (NCATS), 2021).
“And” between values parts separate entries of the source, which are not always exact repeats. Equal entries are not always repeated. Out of some 580,000 compounds screened, about 6,100 (1.1%) were called active. The inconclusive results got no clear call from the source; some entries with a clear call stand among them for comparison. Calls come from the whole dose curve; as a rule, active = well fitted inhibition curve with a large enough effect; inconclusive = small, poorly fitted or top-dose-only effect, or another doubt; inactive = no such curve, though single readings can be large or run the other way. Where the call is inconclusive, the potency comes from a doubtful curve fit.

Protein sequences, listed by entry. Tags and fused reporters are not part of them. Lines headed by an entry give the natural chain unless they say otherwise; changes in a name come on top.
UniProt P18054: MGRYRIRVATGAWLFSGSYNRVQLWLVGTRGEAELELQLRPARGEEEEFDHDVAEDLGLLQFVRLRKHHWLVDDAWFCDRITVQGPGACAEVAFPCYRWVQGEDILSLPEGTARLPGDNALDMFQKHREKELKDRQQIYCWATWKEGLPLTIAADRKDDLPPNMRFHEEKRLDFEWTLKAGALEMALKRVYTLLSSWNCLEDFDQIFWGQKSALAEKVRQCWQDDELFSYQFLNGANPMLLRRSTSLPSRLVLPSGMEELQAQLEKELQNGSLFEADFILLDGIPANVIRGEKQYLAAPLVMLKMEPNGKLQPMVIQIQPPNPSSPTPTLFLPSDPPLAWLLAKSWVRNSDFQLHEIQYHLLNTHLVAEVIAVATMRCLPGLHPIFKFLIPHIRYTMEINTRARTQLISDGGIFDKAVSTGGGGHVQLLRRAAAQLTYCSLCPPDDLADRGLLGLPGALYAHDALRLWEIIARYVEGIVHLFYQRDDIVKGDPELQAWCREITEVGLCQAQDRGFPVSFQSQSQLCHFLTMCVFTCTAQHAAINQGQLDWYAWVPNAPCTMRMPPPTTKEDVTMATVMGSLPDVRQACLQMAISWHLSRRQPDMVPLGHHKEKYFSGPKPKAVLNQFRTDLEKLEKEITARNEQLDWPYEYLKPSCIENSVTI

molecular target: Polyunsaturated fatty acid lipoxygenase ALOX12 (Homo sapiens) (UniProt P18054); assay: Primary qHTS assay for inhibitors of human arachidonate 12S-lipoxygenase (ALOX12): Round 2; details: purified 12hLO, xylenol orange hydroperoxide absorbance; activity change, negative = inhibition: at 108 µM (top of the series) unless noted
Method in brief: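 Purified human 12hLO at 150 nM in 25 mM Hepes, 0.01% Triton X-100, pH 7.0, preincubated 15 min at room temperature with compound. Reaction started with 40 uM arachidonic acid, 30 min at room temperature. Hydroperoxide measured by Fe-xylenol orange, 573/405 nm absorbance ratio.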
% is set by controls: 0 for no effect and ±100 for the full control effect; potency is the fitted concentration of half-maximal effect.

| Compound | Potency | activity change, negative = inhibition |
| --- | --- | --- |
| O=C(Nc1ccc(Cl)c(-c2nc3cc(Cl)ccc3o2)c1)c1ccc([N+](=O)[O-])o1 | inconclusive: 100 µM [inhibitor, partial curve, poor fit] |  |
| O=C(c1ccc(Cl)cc1Cl)N(CCS(=O)(=O)N1CCCCC1)Cc1ccncc1 | inconclusive: 1 µM [inhibitor, full curve] |  |
| COCCn1c(=O)c(C)nc2cnc(N3CCNCC3)nc21 | inconclusive: 100 µM [inhibitor, partial curve, poor fit] |  |
| Cc1cc(NC(=O)C(C)N(c2ccccc2)S(C)(=O)=O)ccc1Br (stereo not drawn) | inconclusive: 89.1 µM [inhibitor, single point] |  |
| COC(=O)[C@]1(Cc2ccccc2)N[C@H](c2ccc(-c3cccc(Cl)c3)c(OC)c2)[C@@H]2C(=O)N(C)C(=O)[C@@H]21 | active: 39.8 µM |  |
| N#Cc1cccc(-c2nccc(NCc3cccs3)n2)c1 | inconclusive: 4.47 µM [inhibitor, full curve, poor fit] |  |
| CCc1c(C)sc(NC(=O)/C=C/c2c(F)cccc2Cl)c1C#N | inconclusive: 28.2 µM [inhibitor, partial curve] |  |
| Fc1ccccc1/C=C1\CCCC2=C1NC(=S)NC2c1ccccc1F (stereo not drawn) | active: 31.6 µM |  |
| Cc1cc(C)n2c(SCC(=O)N(C)C3CCCCC3)nnc2n1 |  | inactive: -9.95% |
| CO[C@H]1C(=O)N(C(C)C)[C@H]1C1CCN(C(=O)CCc2nc3ccccc3s2)CC1 |  | inactive: 15.4% |
| COc1cc(C(=O)Nc2nonc2-c2ccc(C)c(C)c2)cc(OC)c1OC | inconclusive: 126 µM [inhibitor, partial curve, poor fit] |  |
| COc1ccc(C)cc1-n1cnc2cc(C(=O)NC3CCCC3)ccc21 |  | inactive: -14% |
| Clc1cccc(-c2nn3c(Cn4cnc5ccccc54)nnc3s2)c1 | active: 10 µM and inconclusive: 31.6 µM [inhibitor, partial curve, poor fit] |  |
| O=C(c1ccc(=O)[nH]c1)N1CCN(S(=O)(=O)c2ccc(Cl)cc2)CC1 | inconclusive: 6.31 µM [inhibitor, full curve, poor fit] |  |
| O=C1CC/C=C\C[C@@H](CC(=O)N(CCO)Cc2ccccc2)C(=O)NC[C@@H](c2ccccc2)O1 | inconclusive: 1 µM [inhibitor, full curve, poor fit] |  |
| CCCNC(=O)CC(c1ccc(F)cc1)c1c[nH]c2ccccc12 (stereo not drawn) | inconclusive: 25.1 µM [inhibitor, full curve] |  |
| O=C(Nc1ccccc1)c1c2c(nc3ccccc13)CCC2 | active: 35.5 µM |  |
| O=C(O)CCc1conc1-c1cccc(F)c1 |  | inactive: 14% |
| O=C(CSc1nnc(-c2c[nH]c3ccccc23)o1)N1CCCC1 |  | inactive: -18.1% |
| Cc1ccc(NC(=O)CSc2nc(-c3ccccc3Cl)nc3cc(=O)[nH]n23)c(C)c1 |  | inactive: -1.29% |
| CC(C)SCC(=O)Nc1cc(C(C)(C)C)ccc1O | inconclusive: 5.01 µM [inhibitor, full curve, poor fit] |  |
| CCOCCCNC(=O)C1CCN(S(=O)(=O)N2CCCC2)CC1 |  | inactive: 31.5% |
| Cc1ccc(C(c2sc3nc(-c4ccco4)nn3c2O)N2CCC3(CC2)OCCO3)cc1 (stereo not drawn) | inconclusive: 25.1 µM [inhibitor, full curve, poor fit] |  |

Rewritten with bars between the fields: entries from further up
Compound | Potency | activity change, negative = inhibition
O=C(c1ccc(Cl)cc1Cl)N(CCS(=O)(=O)N1CCCCC1)Cc1ccncc1 | inconclusive: 1 µM [inhibitor, full curve] | 
COCCn1c(=O)c(C)nc2cnc(N3CCNCC3)nc21 | inconclusive: 100 µM [inhibitor, partial curve, poor fit] | 
Cc1cc(NC(=O)C(C)N(c2ccccc2)S(C)(=O)=O)ccc1Br (stereo not drawn) | inconclusive: 89.1 µM [inhibitor, single point] | 
COC(=O)[C@]1(Cc2ccccc2)N[C@H](c2ccc(-c3cccc(Cl)c3)c(OC)c2)[C@@H]2C(=O)N(C)C(=O)[C@@H]21 | active: 39.8 µM | 
CCc1c(C)sc(NC(=O)/C=C/c2c(F)cccc2Cl)c1C#N | inconclusive: 28.2 µM [inhibitor, partial curve] | 
Cc1cc(C)n2c(SCC(=O)N(C)C3CCCCC3)nnc2n1 |  | inactive: -9.95%
CO[C@H]1C(=O)N(C(C)C)[C@H]1C1CCN(C(=O)CCc2nc3ccccc3s2)CC1 |  | inactive: 15.4%
COc1cc(C(=O)Nc2nonc2-c2ccc(C)c(C)c2)cc(OC)c1OC | inconclusive: 126 µM [inhibitor, partial curve, poor fit] | 
Clc1cccc(-c2nn3c(Cn4cnc5ccccc54)nnc3s2)c1 | active: 10 µM and inconclusive: 31.6 µM [inhibitor, partial curve, poor fit] | 
O=C(c1ccc(=O)[nH]c1)N1CCN(S(=O)(=O)c2ccc(Cl)cc2)CC1 | inconclusive: 6.31 µM [inhibitor, full curve, poor fit] | 
O=C1CC/C=C\C[C@@H](CC(=O)N(CCO)Cc2ccccc2)C(=O)NC[C@@H](c2ccccc2)O1 | inconclusive: 1 µM [inhibitor, full curve, poor fit] | 
CCCNC(=O)CC(c1ccc(F)cc1)c1c[nH]c2ccccc12 (stereo not drawn) | inconclusive: 25.1 µM [inhibitor, full curve] | 
O=C(Nc1ccccc1)c1c2c(nc3ccccc13)CCC2 | active: 35.5 µM | 
O=C(O)CCc1conc1-c1cccc(F)c1 |  | inactive: 14%
O=C(CSc1nnc(-c2c[nH]c3ccccc23)o1)N1CCCC1 |  | inactive: -18.1%
Cc1ccc(NC(=O)CSc2nc(-c3ccccc3Cl)nc3cc(=O)[nH]n23)c(C)c1 |  | inactive: -1.29%
CC(C)SCC(=O)Nc1cc(C(C)(C)C)ccc1O | inconclusive: 5.01 µM [inhibitor, full curve, poor fit] | 
Cc1ccc(C(c2sc3nc(-c4ccco4)nn3c2O)N2CCC3(CC2)OCCO3)cc1 (stereo not drawn) | inconclusive: 25.1 µM [inhibitor, full curve, poor fit] | 

Remaining list, next part

| Compound | Potency | activity change, negative = inhibition |
| --- | --- | --- |
| CCOc1ccc(C(=S)N2CCCC2)c(OCC)c1 | inconclusive: 70.8 µM [inhibitor, partial curve, poor fit] |  |
| CN(c1ncnc2scc(-c3ccc(Cl)cc3)c12)C1CC1 |  | inactive: 7.33% |
| CCOc1nnc(CN2CCN(c3cccc(F)c3C#N)CC2)s1 |  | inactive: -1.26% |
| COCC(C)NCc1ccc(C)cc1C (stereo not drawn) | inconclusive: 1.58 µM [inhibitor, full curve, poor fit] |  |
| COc1ccc(C(=O)NC(=S)NNC(=O)c2ccc(C)cc2)cc1 | inconclusive: 12.6 µM [inhibitor, full curve, poor fit] |  |
| COc1ccc(CCN2C(=O)CCC2(C)c2nnnn2-c2c(C)cccc2C)cc1OC (stereo not drawn) |  | inactive: -68.2% |
| O=C(CSc1nnc2[nH]c(=O)c(Cc3ccccc3)nn12)Nc1cccc(Cl)c1 | active: 25.1 µM |  |
| O=C1N=c2ccccc2=C1c1c(O)[nH]c2c(C(F)(F)F)cccc12 | inconclusive: 126 µM [inhibitor, single point] |  |
| CCOC(=O)C1Nc2ccc(C)cc2C2C=CCC12 (stereo not drawn) | active: 31.6 µM |  |
| O=C(O)CN1CCCC1=Nc1ccccc1 | inconclusive: 31.6 µM [inhibitor, full curve, poor fit] |  |
| O=C(CCNc1c(-c2cccc(F)c2)nc2cnccn12)NCc1ccccc1 | inconclusive: 70.8 µM [inhibitor, single point] |  |
| CCC(C)c1ccc(C(C)NC(=S)NC2CCCCC2)cc1 (stereo not drawn) | inconclusive: 39.8 µM [inhibitor, partial curve, poor fit] |  |
| Cc1nc(-c2ccc(Cl)cc2)sc1C1(C)CC(c2ccccc2Br)=NO1 (stereo not drawn) | inconclusive: 39.8 µM [inhibitor, partial curve, poor fit] |  |
| CC(=O)Nc1ccc(NC(=O)C(Cc2ccccc2)NC(=O)C2CCC(C)CC2)cc1 (stereo not drawn) |  | inactive: -8.86% |
| O=C(Nc1ccccc1O)c1csc2c1CCCC2 | inconclusive: 22.4 µM [inhibitor, full curve, poor fit] |  |
| O=[N+]([O-])c1ccc(C=Nc2cccc3ccccc23)cc1 | inconclusive: 44.7 µM [inhibitor, partial curve, poor fit] |  |
| Cc1ccc(-c2ccc(/C=N/NC(=S)Nc3ccccc3)o2)cc1[N+](=O)[O-] | inconclusive: 10 µM [inhibitor, full curve] |  |
| c1ccc2c(c1)nc(-c1ccncc1)n2CCNc1nc(CN2CCCCC2)cs1 |  | inactive: 0.799% |
| COc1ccc(C2CC(c3ccc4ccccc4c3)=NN2C(=O)CN2C(=O)CCC2=O)cc1 (stereo not drawn) | inconclusive: 89.1 µM [inhibitor, partial curve, poor fit] |  |
| ClCc1csc(-c2ccccc2Cl)n1 | inconclusive: 44.7 µM [inhibitor, partial curve, poor fit] |  |
| COc1cccc(N2CCN(C(=O)c3ccc(NC(=O)c4nsc5ccccc45)cc3)CC2)c1 |  | inactive: 4.97% |
| CCc1ccc(OCC(=O)NC(NC(=S)Nc2ccccc2C)C(Cl)(Cl)Cl)cc1 (stereo not drawn) |  | inactive: -2.97% |
| CC(=O)c1ccc(NC(=O)CCc2nc3sc4c(c3c(=O)[nH]2)CCCC4)cc1 | inconclusive: 70.8 µM [inhibitor, partial curve, poor fit] |  |

| Compound | Potency | activity change, negative = inhibition |
| --- | --- | --- |
| O/N=C1\CCCc2c1nc(-c1ccccc1Cl)n2O | inconclusive: 6.31 µM [inhibitor, partial curve, poor fit] |  |
| O=C(Nc1ccc2c(c1)OCCO2)c1cccc(Cl)c1Cl |  | inactive: 83.6% |
| NC(=S)N/N=C/c1ccc(-c2cc(Cl)c(Cl)cc2Cl)o1 | inconclusive: 50.1 µM [inhibitor, partial curve, poor fit] |  |
| O=C(O)Cc1csc(Nc2cccc(Cl)c2)n1 |  | inactive: -23.2% |
| CCCCC(CC)C(=O)Nc1c(CC)cccc1CC (stereo not drawn) | inconclusive: 0.316 µM [inhibitor, full curve, poor fit] |  |
| COc1ccc(NC(=O)c2ccco2)cc1NC(=O)COc1ccc(Cl)cc1C | inconclusive: 100 µM [inhibitor, single point] |  |
| S=c1[nH]nc(-c2ccccn2)n1/N=C/c1ccc(Cl)c(Cl)c1 | inconclusive: 10 µM [inhibitor, partial curve, poor fit] |  |
| COc1ccc(C2C(C#N)=C(N)OC(C(C)(C)C)=C2C#N)cc1 (stereo not drawn) | inconclusive: 44.7 µM [inhibitor, partial curve, poor fit] |  |
| COc1cc(OC)cc(C(=O)Nc2nc(CC(=O)NCc3ccc(F)cc3)cs2)c1 | inconclusive: 56.2 µM [inhibitor, single point] |  |
| CC1(C)CC(=O)C=C(Nc2ccccc2)C1 | inconclusive: 126 µM [inhibitor, single point] |  |
| Cc1ccc(S(=O)(=O)/N=C(\N)Nc2nc(C)c3ccc(C)cc3n2)cc1 | inconclusive: 22.4 µM [inhibitor, single point] |  |
| COc1ccccc1NC(=O)CC(NC1CCCCC1)C(=O)O (stereo not drawn) | inconclusive: 50.1 µM [inhibitor, partial curve, poor fit] |  |
| COc1cc(C2NC(=S)NC3=C2CCc2ccccc23)cc(OC)c1OC (stereo not drawn) | inconclusive: 15.8 µM [inhibitor, partial curve] |  |
| CCc1ccc2c(CN3CCc4cc(S(N)(=O)=O)ccc43)cc(=O)oc2c1 | active: 14.1 µM |  |
| CC(=O)Nc1cccc(-c2cc3c(c4c2ccn4C)C2CCC3O2)c1 (stereo not drawn) | inconclusive: 31.6 µM [inhibitor, partial curve, poor fit] |  |
| COc1ccc(C2=NS(=O)(=O)N(C)C(C(=O)N(C)C3CCCCC3)=C2)cc1 |  | inactive: -20.5% |
| Nc1ccc(S(=O)(=O)Nc2ccnn2-c2ccccc2)cc1 | inconclusive: 21.7 µM [inhibitor, partial curve, poor fit] |  |
| CC(=O)Nc1ccc(NC(=O)C2CCCN(C(=O)c3ccc(Cl)cc3)C2)cc1 (stereo not drawn) | inconclusive: 63.1 µM [inhibitor, partial curve, poor fit] |  |
| CC(=O)c1ccc(NC(=O)Cn2ccn3nc(-c4ccccc4)c(CO)c3c2=O)cc1 | inconclusive: 39.8 µM [inhibitor, full curve, poor fit] |  |
| CN1C(=O)CC(C(=O)O)C12CCN(Cc1nc(C(=O)O)co1)CC2 (stereo not drawn) | inconclusive: 10 µM [inhibitor, partial curve] |  |
| Nc1cccc(P(=O)(c2ccccc2)c2ccccc2)c1 |  | inactive: -0.12% |
| Cc1ccc(Nc2nc(NC3CCCCCC3)nc3c2cnn3-c2ccccc2)cc1 |  | inactive: -0.732% |
